In PubChem BioAssay AID212 (DTP/NCI, 2004):
The list is a part of this screen's results and no random one: it gathers tests that were run many times, whatever their T/C, doses with no T/C, and many T/C values between a quarter and a half above the control. Other doses and runs of a compound stand elsewhere. T/C: endpoint of the treated group in % of that of the vehicle group. Schedules are NCI's codes, taken here to give the interval after Q, in days (D) or hours (H), and the number of doses after X. Some entries hold several experiments; the values are given in rising order. Some T/C values carry the count of animals alive at the toxicity check (mostly the fifth day); without a count, all were alive then. Some doses have a count of surviving animals in place of a T/C: the source holds a T/C of zero for them, seemingly a mark for toxic or unscored doses. Counts of survivors are from the toxicity check (mostly the fifth day) where no day follows; animals may have died later.

Tested on: BDF1 mice, colon carcinoma 38 sc, T/C %
Assay: NCI In Vivo Anticancer Drug Screen. Data for tumor model Colon Carcinoma 38 (subcutaneous) in B6D2F1 (BDF1) mice
Settings: T/C endpoint: median tumor weight (est.), higher T/C = larger tumour
Procedure, shortened: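 T/C readout: treated group (T) measurement over vehicle control group (C) measurement. Endpoint is survival or tumor size in mice bearing a transplanted tumor.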

[1] = dose: 100.0 mg/kg/injection, schedule: Q07DX002 (ip), vehicle: suspension in saline, evaluated on day 20
[2] = dose: 200.0 mg/kg/injection, schedule: Q07DX002 (ip), vehicle: saline with Tween-80
[3] = dose: 50.0 mg/kg/injection, schedule: Q07DX002 (ip), vehicle: Klucel (hydroxypropylcellulose) (HPC), evaluated on day 20
[4] = dose: 400.0 mg/kg/injection, schedule: Q07DX002 (ip), vehicle: Klucel (hydroxypropylcellulose) (HPC)

Compound: CNC(=O)/C=C/C1=CN2C(=O)c3ccc(C)c(O)c3NC(OC)C2C1 (stereo not given)
- T/C (dose: 0.12 mg/kg/injection, schedule: Q07DX002 (ip), vehicle: saline, evaluated on day 20): 128 % of control
- survivor count (dose: 1.0 mg/kg/injection, schedule: Q07DX002 (ip), vehicle: saline): 2 of 10 on day 20

Compound: C[CH2][Pb]([CH2]C)([CH2]C)[O]C(=O)COc1ccccc1
- T/C (dose: 1.5 mg/kg/injection, schedule: Q07DX002 (ip), vehicle: Klucel (hydroxypropylcellulose) (HPC), evaluated on day 20): 135 % of control
- survivor count (dose: 24.0 mg/kg/injection, schedule: Q07DX002 (ip), vehicle: Klucel (hydroxypropylcellulose) (HPC)): 5 of 8 on day 20

Compound: O=C(O)CCCc1ccc(N(CCCl)CCCl)cc1
- survivor count (dose: 60.0 mg/kg/injection, schedule: Q07DX002 (ip), vehicle: Klucel (hydroxypropylcellulose) (HPC)): 0 of 10 on day 20 and 5 of 10 on day 20
- survivor count (dose: 120.0 mg/kg/injection, schedule: Q07DX002 (ip), vehicle: Klucel (hydroxypropylcellulose) (HPC)): 0 of 10 on day 20

Compound: Cc1ccc(S(=O)(=O)OCOS(=O)(=O)c2ccc(C)cc2)cc1
- survivor count (dose: 3200.0 mg/kg/injection, schedule: Q07DX002 (ip), vehicle: Klucel (hydroxypropylcellulose) (HPC)): 0 of 10 on day 20

Compound: O=CC(S)CO (stereo not given)
- T/C [1]: 143 % of control

Compound: S=C=NCCc1ccccc1
- survivor count [2]: 0 of 10 on day 20

Compound: CC1=C[S+](c2ccccc2)c2cccc3cc4ccccc4c1c23 (stereo not given)
- T/C (dose: 0.12 mg/kg/injection, schedule: Q07DX002 (ip), vehicle: saline with Tween-80, evaluated on day 20): 140 % of control
- T/C (dose: 0.25 mg/kg/injection, schedule: Q07DX002 (ip), vehicle: saline with Tween-80, evaluated on day 20): 126 % of control

Compound: CNc1nc(NC)nc(NC)n1
- T/C (dose: 25.0 mg/kg/injection, schedule: Q07DX003 (ip), vehicle: Klucel (hydroxypropylcellulose) (HPC), evaluated on day 20): 147 % of control [9 of 10 alive]

Compound: C(CSC1=NCCN1)CSC1=NCCN1
- T/C (dose: 12.5 mg/kg/injection, schedule: Q07DX002 (ip), vehicle: saline, evaluated on day 20): 137 % of control
- T/C (dose: 100.0 mg/kg/injection, schedule: Q07DX002 (ip), vehicle: saline, evaluated on day 20): 138 % of control [9 of 10 alive]

Compound: O=C(NO)c1ccccc1
- T/C (dose: 50.0 mg/kg/injection, schedule: Q07DX002 (ip), vehicle: suspension in saline, evaluated on day 20): 135 % of control
- T/C [1]: 148 % of control

Compound: CC(=O)Oc1ccccc1O
- T/C (dose: 25.0 mg/kg/injection, schedule: Q07DX002 (ip), vehicle: saline + Tween-80 + alcohol, evaluated on day 20): 128 % of control
- survivor count (dose: 100.0 mg/kg/injection, schedule: Q07DX002 (ip), vehicle: saline + Tween-80 + alcohol): 3 of 10 on day 20
- survivor count (dose: 200.0 mg/kg/injection, schedule: Q07DX002 (ip), vehicle: saline + Tween-80 + alcohol): 5 of 10 on day 20
- survivor count (dose: 400.0 mg/kg/injection, schedule: Q07DX002 (ip), vehicle: saline + Tween-80 + alcohol): 0 of 10 on day 20

Compound: COc1ccc(/C=C/C(=O)c2cc(C(=O)O)c(OC)cc2OC)cc1OC
- T/C (dose: 200.0 mg/kg/injection, schedule: Q07DX002 (ip), vehicle: saline, evaluated on day 20): 137 and 141 % of control

Compound: CCOC(=O)CC(SP(=S)(OC)OC)C(=O)OCC (stereo not given)
- survivor count (dose: 800.0 mg/kg/injection, schedule: Q07DX002 (ip), vehicle: suspension in saline): 3 of 10 on day 20

Compound: O=[N+]([O-])O.[Ga]
- T/C (dose: 50.0 mg/kg/injection, schedule: Q07DX003 (ip), vehicle: saline, evaluated on day 20): 128 % of control [9 of 10 alive]
- survivor count (dose: 200.0 mg/kg/injection, schedule: Q07DX002 (ip), vehicle: saline): 6 of 10
- survivor count (dose: 200.0 mg/kg/injection, schedule: Q07DX003 (ip), vehicle: saline): 5 of 10

Compound: CC(=O)Nc1ccc(/C=N/NC(N)=S)cc1
- T/C [3]: 133 % of control
- T/C (dose: 400.0 mg/kg/injection, schedule: Q07DX002 (ip), vehicle: Klucel (hydroxypropylcellulose) (HPC), evaluated on day 20): 138 % of control [9 of 10 alive on day 20]
- T/C (dose: 450.0 mg/kg/injection, schedule: Q07DX002 (ip), vehicle: saline with Tween-80, evaluated on day 20): 133 % of control
- T/C (dose: 900.0 mg/kg/injection, schedule: Q07DX002 (ip), vehicle: saline with Tween-80, evaluated on day 20): 137 % of control

Compound: CCC(CC)COC(=O)c1ccccc1C(=O)OCC(CC)CC
- T/C (dose: 25.0 mg/kg/injection, schedule: Q07DX002 (ip), vehicle: saline with Tween-80, evaluated on day 20): 125 % of control
- T/C (dose: 50.0 mg/kg/injection, schedule: Q07DX002 (ip), vehicle: saline with Tween-80, evaluated on day 20): 147 % of control
- T/C (dose: 400.0 mg/kg/injection, schedule: Q07DX002 (ip), vehicle: saline with Tween-80, evaluated on day 20): 129 % of control

Compound: Cc1cc2nc3[nH]c4ccccc4c3nc2cc1C
- T/C (dose: 25.0 mg/kg/injection, schedule: Q07DX002 (ip), vehicle: Klucel (hydroxypropylcellulose) (HPC), evaluated on day 20): 144 % of control

Compound: CO[C@@H]1[C@H](O)CC[C@]2(CO2)[C@H]1[C@@]1(C)O[C@@H]1CC=C(C)C
- T/C (dose: 100.0 mg/kg/injection, schedule: Q07DX002 (ip), vehicle: saline with Tween-80, evaluated on day 20): 126 % of control

Compound: Cc1c2ccc3ccccc3c2c[n+]2ccccc12
- T/C (dose: 10.0 mg/kg/injection, schedule: Q07DX002 (ip), vehicle: Klucel (hydroxypropylcellulose) (HPC), evaluated on day 20): 147 % of control
- survivor count (dose: 40.0 mg/kg/injection, schedule: Q07DX002 (ip), vehicle: Klucel (hydroxypropylcellulose) (HPC)): 6 of 10 on day 20
- survivor count (dose: 80.0 mg/kg/injection, schedule: Q07DX002 (ip), vehicle: Klucel (hydroxypropylcellulose) (HPC)): 0 of 10 on day 20 and 1 of 10 on day 20

Compound: CN1C(=O)C(=Cc2ccc(O)cc2)C(=O)N(C)C1=O
- survivor count (dose: 50.0 mg/kg/injection, schedule: Q07DX002 (ip), vehicle: saline with Tween-80): 3 of 10 on day 20
- survivor count (dose: 100.0 mg/kg/injection, schedule: Q07DX002 (ip), vehicle: saline with Tween-80): 6 of 10 on day 20
- survivor count [2]: 2 of 10 on day 20
- survivor count (dose: 400.0 mg/kg/injection, schedule: Q07DX002 (ip), vehicle: saline with Tween-80): 0 of 10 on day 20

Compound: Cn1cnc([N+](=O)[O-])c1S(=O)(=O)NCN1CCOCC1
- survivor count [4]: 1 of 10 on day 20
- survivor count (dose: 800.0 mg/kg/injection, schedule: Q07DX002 (ip), vehicle: Klucel (hydroxypropylcellulose) (HPC)): 0 of 10 on day 20

Compound: COc1ccc2c(c1)CCC(c1ccccc1)=C2c1ccc(OCCN2CCCC2)cc1
- T/C [3]: 142 % of control
- survivor count (dose: 200.0 mg/kg/injection, schedule: Q07DX002 (ip), vehicle: Klucel (hydroxypropylcellulose) (HPC)): 3 of 10 on day 20
- survivor count [4]: 0 of 10 on day 20

Compound: C1OCN2CSCC12 (stereo not given)
- survivor count (dose: 800.0 mg/kg/injection, schedule: Q07DX002 (ip), vehicle: saline with Tween-80): 2 of 10 on day 20

Compound: Nc1ncnc2c1ncn2C1C=C(CO)C(O)C1O (stereo not given)
- survivor count (dose: 8.0 mg/kg/injection, schedule: Q07DX002 (ip), vehicle: saline): 4 of 10 on day 20
- survivor count (dose: 16.0 mg/kg/injection, schedule: Q07DX002 (ip), vehicle: saline): 0 of 10 on day 20
- survivor count (dose: 32.0 mg/kg/injection, schedule: Q07DX002 (ip), vehicle: saline): 0 of 10 on day 20

Compound: Nc1nc2c(ncn2C2OC(CO)C(O)C2O)c(=O)[nH]1.Nc1nc2c(ncn2C2OC(CO)C(O)C2O)c(=O)[nH]1.[NH2-].[NH2-].[Pt+2] (stereo not given)
- T/C (dose: 400.0 mg/kg/injection, schedule: Q07DX002 (ip), vehicle: water, evaluated on day 20): 128 % of control [9 of 10 alive]

Compound: CO[C@H](C(=O)[C@@H](O)[C@@H](C)O)[C@@H]1Cc2cc3cc(OC4CC(OC5CC(O)C(O)C(C)O5)C(O)C(C)O4)c(C)c(O)c3c(O)c2C(=O)[C@H]1OC1CC(OC2CC(OC3CC(C)(O)C(O)C(C)O3)C(O)C(C)O2)C(O)C(C)O1 (stereo not given in full)
- T/C (dose: 0.5 mg/kg/injection, schedule: Q07DX002 (ip), vehicle: saline, evaluated on day 21): 127 % of control
- T/C (dose: 1.0 mg/kg/injection, schedule: Q07DX002 (ip), vehicle: saline, evaluated on day 21): 143 % of control [8 of 10 alive]
- T/C (dose: 2.0 mg/kg/injection, schedule: Q07DX002 (ip), vehicle: saline, evaluated on day 21): 128 % of control

Compound: Cn1cnc([N+](=O)[O-])c1SCC(=O)O
- T/C (dose: 56.2 mg/kg/injection, schedule: Q07DX002 (ip), vehicle: saline, evaluated on day 20): 137 % of control
